Data as given in patent US9242009B2, “Compositions and methods to treat neurodegenerative diseases” (The General Hospital Corporation, priority 2012, dated 2016).

Assay: Sulfide release from H2S donors in cell-free culture medium and buffers (HPLC, MBB)
Type: physicochemical
Conditions: 20 μM compound added at time 0; DMEM/F12 with 10% FBS without cells; pH 7.4; 37° C.

O=C(O)c1ccc(-c2cssc2=S)cc1 [ACS48, 4-(3-thioxo-3H-1,2-dithiol-4-yl)-benzoic acid]
Sulfide levels in the medium after 24 hours: 3.6 µM

C[C@]12C[C@@H]3C[C@](C)(C1)C[C@@](NC(=O)c1ccc(-c4cssc4=S)cc1)(C3)C2 [S-memantine, N-((1r,3R,5S,7r)-3,5-dimethyladamantan-1-yl)-4-(3-thioxo-3H-1,2-dithiol-4-yl)-benzamide]
Sulfide levels in the medium after 24 hours: 5.1 µM
